Laboratory results published in patent publication US8022178B2, “Modified self-assembling peptides” (Massachusetts Institute of Technology, priority 2006, dated 2011).
Some entries share one result that the patent states for a list of compounds.

Test: Solution state of (FKFQ)3 based peptide solutions versus pH
Format: physicochemical
Conditions: neutral pH range

Substance	pH up to which the peptide solution stays in solution
AcFKFQFKFQFKFQGPRGDSGYRGDS-CONH2 (ACFKFQFKFQFKFQGPRGDSGYRGDS; N-acetyl, C-amide; Repetitive RGD binding sequence) [KPRG, 1% solution]	≤ 8
Ac(FKFQ)3-CONH2 (FKFQFKFQFKFQ; N-acetyl, C-amide; from Self-Assembling peptide - invented sequence) [FKF = 1% solution; FKF-2P = 2% solution, reference compound]	≤ 8
